Results published in article PMC9399059.
Results are given in words; binding and its absence hold for the method and conditions named. Binding seen in cells or lysates may run through a third protein. Some results given as binding are weak or reduced against the parent protein; the word gives no strength.

Chains of the proteins cited; added tags and fusions are not shown. Residues count along the entry.
UniProt P15999, residues 44-553: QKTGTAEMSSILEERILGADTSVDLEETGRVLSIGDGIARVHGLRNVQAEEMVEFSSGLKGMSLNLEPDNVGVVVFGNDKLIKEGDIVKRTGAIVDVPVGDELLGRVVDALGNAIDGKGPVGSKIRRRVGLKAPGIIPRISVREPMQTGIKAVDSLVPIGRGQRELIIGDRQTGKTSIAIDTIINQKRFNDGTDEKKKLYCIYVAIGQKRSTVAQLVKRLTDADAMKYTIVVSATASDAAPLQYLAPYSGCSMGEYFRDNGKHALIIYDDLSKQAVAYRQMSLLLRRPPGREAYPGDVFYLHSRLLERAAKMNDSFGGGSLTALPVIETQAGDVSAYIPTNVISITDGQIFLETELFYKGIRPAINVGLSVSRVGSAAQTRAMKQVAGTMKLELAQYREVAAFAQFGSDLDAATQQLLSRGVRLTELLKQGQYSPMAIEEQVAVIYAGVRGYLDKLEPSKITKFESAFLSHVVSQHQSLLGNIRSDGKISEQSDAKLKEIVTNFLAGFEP
UniProt P97571: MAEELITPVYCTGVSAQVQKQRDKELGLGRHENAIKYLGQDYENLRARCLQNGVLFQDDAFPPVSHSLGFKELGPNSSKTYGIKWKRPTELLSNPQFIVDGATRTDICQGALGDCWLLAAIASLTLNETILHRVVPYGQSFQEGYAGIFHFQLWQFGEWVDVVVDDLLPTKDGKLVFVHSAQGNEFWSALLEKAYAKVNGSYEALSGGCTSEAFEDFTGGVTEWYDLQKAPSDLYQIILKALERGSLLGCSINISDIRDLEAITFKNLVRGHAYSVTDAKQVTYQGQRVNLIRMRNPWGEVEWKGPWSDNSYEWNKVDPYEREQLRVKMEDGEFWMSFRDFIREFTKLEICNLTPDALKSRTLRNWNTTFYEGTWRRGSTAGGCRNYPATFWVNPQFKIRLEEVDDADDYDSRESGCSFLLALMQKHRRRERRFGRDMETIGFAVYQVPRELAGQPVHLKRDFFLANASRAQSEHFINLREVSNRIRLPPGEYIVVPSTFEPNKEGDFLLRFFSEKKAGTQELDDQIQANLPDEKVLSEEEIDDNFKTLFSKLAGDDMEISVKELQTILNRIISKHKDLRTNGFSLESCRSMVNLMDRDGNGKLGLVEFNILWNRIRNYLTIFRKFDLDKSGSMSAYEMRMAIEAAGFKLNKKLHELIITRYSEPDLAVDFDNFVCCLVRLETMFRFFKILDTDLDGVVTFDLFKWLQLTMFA

What was measured:
[1] = target: ATP synthase-α (ATP5A1) (rat (endogenous in NRCMs)) (UniProt P15999); experiment: co-IP; anti-calpain-1 or anti-ATP5A1 antibody (control anti-IgG) on Protein A/G magnetic beads, NP40 lysates of CVB3-treated NRCMs, overnight 4 °C; western blot
[2] = target: calpain-1 (rat (endogenous in NRCMs)) (UniProt P97571); experiment: as above

Substance | binding [1] | binding [2]
calpain-1 (from UniProt P97571 1-713) (enzyme) | binds | 
ATP synthase-α (ATP5A1) (from UniProt P15999 44-553) |  | binds
